{"source": "the supplement of paper PMC5407854", "about": "“Inhibitor of ppGalNAc-T3-mediated O-glycosylation blocks cancer cell invasiveness and lowers FGF23 levels” (eLife, 2017)", "note": "The other results are listed elsewhere or left out. Most entries show no effect beyond the scatter of the controls.", "data": [{"test_system": "ppGalNAc-T2 sensor", "assay": "T2 sensor activation Q score (MG/GFP ratio z-score vs DMSO controls) (SD units); higher = more sensor activation (inhibition of ppGalNAc-T2 glycosylation)", "conditions": "HEK293 sensor cells; 10 µM; 6 h", "experimental": "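Cells were treated with compound at 10 uM for 6 h, then MG/GFP ratio was read by flow cytometry (10,000 cells per well, duplicate wells). Q = (R - R_neg)/SD_neg relative to DMSO vehicle controls; the signal rises when the glycosyltransferase is inhibited.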", "values": [{"smiles": "Cc1ccc(C)c(CN2CCN(c3ccccc3)CC2)c1", "T2 sensor activation Q score": -0.38}, {"smiles": "COc1ccc(CN2CCN(CCO)CC2)cc1Br", "T2 sensor activation Q score": -0.335}, {"smiles": "O=c1[nH]c2c(c(=O)n1C1CCCCC1)CCC2", "T2 sensor activation Q score": -0.175}, {"smiles": "COc1ccc(CC(N)=O)cc1OC", "T2 sensor activation Q score": 0.405}, {"smiles": "Cc1ccc(CNC(C)Cc2ccccc2)o1", "note": "(stereo not given)", "T2 sensor activation Q score": 0.19}, {"smiles": "CCN1CCN(Cc2cccc(Br)c2)CC1", "T2 sensor activation Q score": 0.105}, {"smiles": "COc1cccc(CN2CCN(c3cccc(Cl)c3)CC2)c1OC", "T2 sensor activation Q score": -0.455}, {"smiles": "COc1ccccc1CN1CCN(c2ccc([N+](=O)[O-])cc2)CC1", "T2 sensor activation Q score": -0.67}, {"smiles": "CCOc1ccccc1CN1CCN(c2ccccc2)CC1", "T2 sensor activation Q score": -0.06}, {"smiles": "CCOc1ccc(C(CN)CC(=O)O)cc1", "note": "(stereo not given)", "T2 sensor activation Q score": -1.86}, {"smiles": "COc1ccc(N2CCN(Cc3cc(Br)ccc3OC)CC2)cc1", "T2 sensor activation Q score": -0.195}, {"smiles": "CCN1CCN(Cc2cc(OC)c(OC)cc2[N+](=O)[O-])CC1", "T2 sensor activation Q score": -0.775}, {"smiles": "Fc1ccccc1N1CCN(Cc2ccc(Cl)cc2)CC1", "T2 sensor activation Q score": 0.925}, {"smiles": "Fc1ccccc1CN1CCN(Cc2ccc3c(c2)OCO3)CC1", "T2 sensor activation Q score": 0.225}, {"smiles": "COc1ccccc1N1CCN(Cc2ccc(C)cc2)CC1", "T2 sensor activation Q score": 0.345}, {"smiles": "CCOc1ccccc1N1CCN(Cc2ccc(F)cc2F)CC1", "T2 sensor activation Q score": 0.08}, {"smiles": "CN1CCN(Cc2ccc([N+](=O)[O-])cc2)CC1", "T2 sensor activation Q score": 0.395}, {"smiles": "CCN1CCN(Cc2ccc(C)cc2C)CC1", "T2 sensor activation Q score": -0.86}, {"smiles": "O=[N+]([O-])c1ccc(N2CCN(Cc3ccc(Cl)cc3)CC2)cc1", "T2 sensor activation Q score": -0.375}, {"smiles": "Fc1ccc(N2CCN(Cc3ccc(F)cc3F)CC2)cc1", "T2 sensor activation Q score": 0.04}, {"smiles": "COc1ccccc1CN1CCN(C)CC1", "T2 sensor activation Q score": -0.015}, {"smiles": "NCCc1nc2ccccc2[nH]1", "T2 sensor activation Q score": -0.065}, {"smiles": "O=[N+]([O-])c1ccccc1CN1CCN(c2ccc(Cl)cc2)CC1", "T2 sensor activation Q score": -0.68}, {"smiles": "CCN1CCN(Cc2c(F)cccc2F)CC1", "T2 sensor activation Q score": -0.295}, {"smiles": "CCOc1ccccc1CN1CCN(c2ccccc2C)CC1", "T2 sensor activation Q score": -0.18}, {"smiles": "CN1CCN(Cc2cccc(Cl)c2Cl)CC1", "T2 sensor activation Q score": 0.24}, {"smiles": "COc1ccc(OC)c(CN2CCN(c3ccccc3C)CC2)c1", "T2 sensor activation Q score": -0.345}, {"smiles": "O=C1NC(=O)C(C(c2ccccc2)c2ccccc2)C(=O)N1", "T2 sensor activation Q score": 0.3}, {"smiles": "CN(C)CCC(=O)c1ccccc1", "T2 sensor activation Q score": -0.85}, {"smiles": "C=CCOc1ccccc1CN1CCN(c2ccccc2)CC1", "T2 sensor activation Q score": 0.405}, {"smiles": "COc1cccc(CN2CCN(c3ccc(Cl)cc3)CC2)c1OC", "T2 sensor activation Q score": -0.225}, {"smiles": "CCOc1ccccc1CN1CCN(C)CC1", "T2 sensor activation Q score": -0.225}, {"smiles": "COc1ccccc1N1CCN(Cc2ccc(F)c(F)c2)CC1", "T2 sensor activation Q score": 0.265}, {"smiles": "CCc1ccc(CN2CCN(CC)CC2)cc1", "T2 sensor activation Q score": 0.36}, {"smiles": "CN1CCN(Cc2ccc(N(C)C)cc2)CC1", "T2 sensor activation Q score": -0.49}, {"smiles": "CCN1CCN(Cc2ccccc2C)CC1", "T2 sensor activation Q score": 1.12}, {"smiles": "Cc1ccccc1CN1CCN(c2ccc(F)cc2)CC1", "T2 sensor activation Q score": -0.195}, {"smiles": "COc1ccc(N2CCN(Cc3ccc(F)cc3)CC2)cc1", "T2 sensor activation Q score": 0.59}, {"smiles": "Clc1ccc(N2CCN(Cc3ccc4c(c3)OCO4)CC2)cc1", "T2 sensor activation Q score": -0.885}, {"smiles": "Nc1cc(N2CCNCC2)ccc1[N+](=O)[O-]", "T2 sensor activation Q score": -0.545}]}]}
